Laboratory results from PubChem BioAssay AID624297 (National Center for Advancing Translational Sciences (NCATS), 2012).
In all, about 340,000 compounds went through this assay and about 6,200 (1.8%) were called active. Inconclusive results, whose numbers are uncertain, are shown with a selection of clear calls. Calls follow the shape of the dose curve; as a rule, active = well fitted activation curve with a large enough effect; inconclusive = small, poorly fitted or top-dose-only effect; inactive = no such curve, though single readings can be large or run the other way. A potency beside an inconclusive call is a rough fit, not a confirmed value.

Assay: A quantitative high throughput screen for small molecules that induce DNA re-replication in SW480 colon adenocarcinoma cells. Also: nearly all actives have a fitted effect of over 55% in size.
Settings: Hoechst DNA content imaging, 48 h; series mostly up to 46.1 µM
Method in brief: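 Per well, 250 cells were exposed to pinned compound for 48 hr. Nuclear DNA was visualised with Hoechst (40 min, 37 C) and total object intensity recorded by fluorescence scanning.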
Potency is read from the fitted curve at half-maximal effect.

| SMILES | Potency |
| --- | --- |
| COc1cccc(/C(N)=N/OC(=O)Cc2ccccc2[N+](=O)[O-])c1 | inactive |
| O=C(Nc1ccccc1)c1snc2c(=O)[nH]cnc12 | inactive |
| Cc1ccc(-c2noc(CSc3nnc(-c4ccncc4)n3-c3ccc(C)cc3)n2)cc1 | inconclusive: 16.4 µM [activator, single point] |
| O=C(CCCCCn1c(=S)[nH]c2cc3c(cc2c1=O)OCO3)N1CCN(Cc2ccccc2)CC1 | inconclusive: 20.6 µM [activator, single point] |
| CCOc1cc(CNCCO)cc(Br)c1OCc1ccccc1 | inconclusive: 29.1 µM [activator, single point] |
| O=C(NNC(=O)c1ccccc1O)c1ccc(Cl)c(S(=O)(=O)N2CCc3ccccc32)c1 | inconclusive: 29.1 µM [activator, partial curve, poor fit] |
| Cc1nc(NC(=O)c2ccc(OCC(C)C)cc2)sc1Cc1ccc2c(c1)OCO2 | inconclusive: 20.6 µM [activator, single point] |
| CN1CCN(S(=O)(=O)c2cccc(C(=O)Nc3sc4c(c3-c3nc5ccccc5[nH]3)CCCC4)c2)CC1 | inconclusive: 12.6 µM [activator, single point] |
| CCCN(CC(=O)Nc1cc(Cl)ccc1Cl)C(=O)/C=C/c1cc(OC)ccc1OC | inconclusive: 29.1 µM [activator, single point] |
| CCOc1ccccc1C(=O)N[C@H](C(=O)OCc1cc(=O)oc2cc(C)ccc12)C(C)C | inconclusive: 32.6 µM [activator, partial curve, poor fit] |
| COc1ccc(NC(=O)c2cc3ccc4c5ccccc5[nH]c4c3cc2O)cc1 | inconclusive: 14.6 µM [activator, partial curve] |
| CN(CCc1ccccc1)C(=O)c1ccc(NC(=O)Cc2ccc(NC(=O)C3CCCN(C(=O)c4ccccc4)C3)cc2)cc1 (stereo not drawn) | inconclusive: 6.51 µM [activator, single point] |
| CN1CCC(NC(=O)c2cccc(Oc3ccccc3)c2)CC1 | inactive |
| COc1ccc(Nc2nnc(SCC(=O)NC(=O)Nc3ccc4c(c3)OCCO4)s2)cc1 | active: 10.3 µM |
| O=C(O)c1nn(CCOc2ccc(Br)cc2)c(=O)c2ccccc12 | inactive |
| Cc1ccc(-n2c(=O)[nH]c3c(C(N)=O)nc(C(C)C)nc32)cc1 | inconclusive: 0.13 µM [activator, full curve, poor fit] |
| Cc1cccc(N(C)C(=O)c2cc3c(=O)[nH]c4ccc(C)cc4c3s2)c1 | active: 9.2 µM |
| Oc1cccc(Nc2nc(NCC3CCCO3)c3ccccc3n2)c1 (stereo not drawn) | inactive |
| COc1nc(Nc2cccc([N+](=O)[O-])c2)nc(OC)n1 | inactive |
| COC(=O)C(F)(Sc1c(C)n(C)n(-c2ccccc2)c1=O)C(F)(F)F (stereo not drawn) | inactive |
| C=CC(=O)Oc1ccc(N2Cc3ccccc3C2=O)cc1 | active: 11.6 µM |
| O=C(COc1coc(CN2CCc3ccccc3C2)cc1=O)Nc1cccc(F)c1 | inactive |
| O=C(NC(NC(=S)Nc1cccc(Cl)c1)C(Cl)(Cl)Cl)OCc1ccccc1 (stereo not drawn) | inconclusive: 32.6 µM [activator, single point] |
| Nc1ccc(Nc2nc(-c3ccncc3)cs2)cc1 | inconclusive: 18.4 µM [activator, single point] |
| CC(C)(C)NC(=O)CN(Cc1cccs1)C(=O)c1csnn1 | inactive |

| SMILES | Potency |
| --- | --- |
| COc1ccc(/C=C/C(=O)N2CCN(c3ccccn3)CC2)cc1 | inactive |
| Cc1cc2cc(CN(CC3CCCO3)C(=S)Nc3ccccc3)c(=O)[nH]c2cc1C (stereo not drawn) | inconclusive: 20.6 µM [activator, single point] |
| COc1ccc(OCC(=O)NNC(=S)NC(=O)C2CC2)cc1 | inconclusive: 29.1 µM [activator, single point] |
| CCC/C(C#Cc1ccc(N(C)C)cc1)=C1/c2ccccc2C(=O)N1c1ccccc1 | inconclusive: 2.59 µM [activator, partial curve, poor fit] |
| COc1cccc(NC(=O)CNC(=O)[C@@H]2Cc3ccccc3CN2C(=O)OC(C)(C)C)c1 | inconclusive: 29.1 µM [activator, partial curve, poor fit] |
| C=CCn1c(=O)c2ccccc2n2c(=S)[nH]nc12 | inactive |
| COc1cc(/C=C2\CCc3ccccc3C2=O)cc(OC)c1OC | inconclusive: 29.1 µM [activator, single point] |
| O=C(Nc1ccccc1C(=O)Nc1ccc(F)cc1)c1ccco1 | inconclusive: 29.1 µM [activator, single point] |
| O=C(c1cnc(N2CCN(c3ccccn3)CC2)c2ccccc12)N1CCN(c2cccc(Cl)c2)CC1 | inconclusive: 29.1 µM [activator, single point] |
| CCOc1ccccc1NC(=O)Cn1c(-c2ccc(Cl)cc2)noc1=O | inconclusive: 4.11 µM [activator, single point] |
| CC(C)CC(=O)NC(C)C(c1cccs1)N1CCOCC1 (stereo not drawn) | inactive |
| c1ccc2c(c1)-c1cccc3cncc-2c13 | inactive |
| Cn1nnnc1Sc1ncnc2scc(-c3ccsc3)c12 | inconclusive: 4.11 µM [activator, single point] |
| Fc1ccc(OCc2nc(-c3ccncc3)n[nH]2)cc1 | inactive |
| O=C(NCC1CCCO1)c1ccc(COc2ccc(Br)cc2)cc1 (stereo not drawn) | inconclusive: 32.6 µM [activator, partial curve, poor fit] |
| C/C(Cn1nnc([N+](=O)[O-])n1)=N\NC(=O)c1ccncc1 | inconclusive: 16.4 µM [activator, partial curve, poor fit] |
| COc1ccc(OC)c(NC(=O)C(C)N2c3cccc4cccc(c34)S2(=O)=O)c1 (stereo not drawn) | inconclusive: 25.9 µM [activator, single point] |
| OCCC1CN(CC(c2ccccc2)c2ccccc2)CCN1C1CCCC1 (stereo not drawn) | inconclusive: 20.6 µM [activator, single point] |
| CCN1C(=O)/C(=C\c2nc3ccccc3c(=O)n2-c2ccccc2)c2ccccc21 | inconclusive: 29.1 µM [activator, single point] |
| C#CCSc1nnnn1-c1cccc(Cl)c1 | inconclusive: 23.1 µM [activator, single point] |
| COc1cccc(CCNC(=O)C2CCCN(c3ncnc4c3nc3n4CCCCC3)C2)c1OC (stereo not drawn) | inconclusive: 2 µM [activator, partial curve, poor fit] |
| Nc1c(C(=O)c2ccccc2)sc2nsc(SCCN3CCOCC3)c12 | inconclusive: 23.1 µM [activator, partial curve, poor fit] |
| CN1/C(=C\C(=O)c2cccnc2)Sc2ccccc21 | active: 7.31 µM |
| O=C(CN1CCN(S(=O)(=O)c2ccc(Cl)cc2)CC1)N1CCCC1 | inactive |
| Cc1ccc(S(=O)(=O)Nc2ccc(O)c3cccnc23)cc1 | active: 23.1 µM |

No new results follow: entries from further up.

| SMILES | Potency |
| --- | --- |
| COc1ccc(/C=C/C(=O)N2CCN(c3ccccn3)CC2)cc1 | inactive |
| Cc1cc2cc(CN(CC3CCCO3)C(=S)Nc3ccccc3)c(=O)[nH]c2cc1C (stereo not drawn) | inconclusive: 20.6 µM [activator, single point] |
| COc1ccc(OCC(=O)NNC(=S)NC(=O)C2CC2)cc1 | inconclusive: 29.1 µM [activator, single point] |

The results go on.

| SMILES | Potency |
| --- | --- |
| O=c1[nH]c2cc3c(cc2cc1C(c1nnnn1C1CCCC1)N1CCSCC1)OCCO3 (stereo not drawn) | inactive |
| Cc1ncsc1C(=O)Nc1nc2c(s1)CC(C)CC2 (stereo not drawn) | inconclusive: 17.8 µM [activator, single point] |
| Cc1ccc(-c2csc3nc[nH]c(=S)c23)cc1C | inconclusive: 29.1 µM [activator, single point] |
| COc1ccc(-c2cc(C3CC3)nc(N)c2C#N)cc1 | inactive |
| COc1ccc(N2CCN(S(=O)(=O)CCNC(=O)C3CCCCC3)CC2)cc1 | inactive |
| Cc1cc(C(=O)N2CCCC(Nc3ccccc3)C2)c2ccc(F)cc2n1 (stereo not drawn) | inactive |
| COc1ccc(OC)c(C(C(=O)NC2CCCCC2)N(C(=O)c2snc(C(N)=O)c2N)c2ccccc2OC)c1 (stereo not drawn) | inactive |
| CCC(C)N(C(=O)CSc1nnc2ccccn12)C1CCS(=O)(=O)C1 (stereo not drawn) | inconclusive: 18.4 µM [activator, single point] |
| Cc1ccc(-n2ncc3c(=O)n(CC(=O)NCc4ccco4)cnc32)cc1C | inconclusive: 23.1 µM [activator, single point] |
| COc1ccccc1N1CCN(/N=C/c2ccc(O)c(O)c2)CC1 | active: 13 µM |
| CN(CC(=O)Nc1ccc2c(c1)OCCO2)S(=O)(=O)c1cccc2cccnc12 | inactive |
| Cc1nn(C2CCS(=O)(=O)C2)c2nc(C3CC3)cc(C(=O)Nc3ccc(C(N)=O)cc3)c12 (stereo not drawn) | inactive |
| O=C(CCC(=O)N1CCOCC1)NCCc1ccc(F)cc1 | inactive |
| COc1ccccc1CNC(=O)C(Cc1ccccc1)NC(=O)c1ccccc1 (stereo not drawn) | inactive |
| Cc1ccc(-n2cccc2C(=S)N=P(N(C)C)(N(C)C)N(C)C)cc1 | inconclusive: 18.4 µM [activator, single point] |
| N#CC1=CC2CN(Cc3ccccc3)C1C1C(=O)N(c3ccccc3)C(=O)C21 (stereo not drawn) | inactive |
| COc1ccc(N2CCN(C(=O)c3cc(=O)c4cc(C)ccc4o3)CC2)cc1 | inactive |
| COc1ccc(S(=O)Cc2ccc(C(=O)N3CCN(c4cccc(C)c4C)CC3)o2)cc1 (stereo not drawn) | inconclusive: 6.51 µM [activator, single point] |
| C/C=C/c1ccc(OCc2cc(=O)n3cc(C)ccc3n2)c(OC)c1 | inactive |
| Cc1cccc(OCC(=O)NCC(=O)N/N=C/c2cc(Br)cc(Br)c2O)c1 | inconclusive: 20.6 µM [activator, single point] |
| Cc1ccc(NS(=O)(=O)c2ccc3[nH]c(=O)[nH]c3c2)cc1 | inconclusive: 4.61 µM [activator, full curve, poor fit] |
| CCCN(CC(=O)Nc1ccccc1OC)C(=O)CSc1ccc(Br)cc1C | inconclusive: 29.1 µM [activator, single point] |
| O=C(NCCc1ccccc1)c1ccc(NC(=O)C2CCC2)cc1 | inactive |
